According to patent US20230146455A1, “TREATMENT OF INFLAMMATORY DISEASES WITH PEPTIDES AND PHARMACEUTICAL COMPOSITIONS” (Yuyu Pharma, Inc., priority 2020, published 2023):
Read-outs that look alike come from different tables or passages of the source.

Assay: Apparent permeability, 21 day cultured Caco-2 cell monolayer, bi-directional (Example 7)
Type: in vitro ADME
Details: human, Caco-2, 2 μM
Procedure: 10 mM stock solution of test compound was prepared in DMSO. 10 mM stock was diluted with 100% DMSO to prepare 0.2 mM, 0.2 mM stock was diluted with HBSS buffer to a final concentration of 2 μM.
Add 250 μL of DMEM to the basal compartment of 96 well multi-screen Caco-2 plates and seed 12000 cells/well (0.16×10^6 cells/ml) in all the apical wells required and 2 wells with only media as blank without cells. Place the Caco-2 plate in CO2 incubator at 37° C. for proliferation of cells.
The utilized media was replenished every alternate day by fresh medium. On 21st day, utilized medium was removed and washed twice with HBSS Buffer and incubated with HBSS buffer 30 min in incubator and initiated the assay.
75 μL of test compound was added to apical wells and 250 μL of HBSS buffer with 1% DMSO was added to basal wells. Samples were collected at 120 min and processed as stated below.
250 μL of test compound was added to basal wells and 75 μL of HBSS buffer with 1% DMSO was added to apical wells. Samples were collected at 120 min and processed as stated below.
Single point calibration curve in HBSS buffer was used. 100 μL of supernatant was diluted with 200 μL of water and submitted for LC-MS/MS analysis.
Efflux ratio=Papp of basal to apical samples/Papp of apical to basal samples
Recovery: {(dQ of Apical+dQ of Basal)/Standard dQ}*100

Which results are given for `CC(C)NCC(O)COc1ccc(CC(N)=O)cc1` (stereo not drawn) [Atenolol]?
Papp B→A at 120 min, 2 μM (average values, read-out: Papp Basal to Apical): 0.57 ×10⁻⁶ cm/s; recovery at 120 min, 2 μM (read-out: A to B % Recovery): 93.9%; recovery at 120 min, 2 μM (read-out: B to A % Recovery): 85.3%
